Values from PubChem BioAssay AID504744 (Drosophila RNAi Screening Center, 2011)

Assay: 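Find genes whose loss alters insulin-driven dAkt phosphorylation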 (primary screen)
Cells: Drosophila Kc167 cells
Knock-down reagent: long dsRNA against Drosophila genes, 250 ng dsRNA per well of a 384-well plate
Duration: 3 days of knock-down, then overnight serum-free starvation before stimulation
Challenge: bovine insulin at 387 nM for 10 minutes after 12 h without serum
Detection: 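In-cell antibody fluorescence for phospho-dAkt in each well over DNA-dye signal, with log2 residuals expressed as z-scores adjusted for cell count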
Active means: 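Under insulin, a gene counts as a hit if the average z-score of two replicates lies above 2.5 or below -2.5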
The deposit covers about 23,000 reagents; this is an unselected part of those with a known target gene and a result. Over the whole deposit, 98 (0.43%) are marked active. 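Only hit calls are given; the phospho-dAkt signals, z-scores and hit direction were not deposited.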 Names joined by + are all predicted targets of the reagent.

Against CG14545 (GeneID 50075) [DRSC14889], the values are inactive.
Depletion of CG6893 (GeneID 40038) [DRSC10742] came out at: inactive.
Silencing of CG31102 (GeneID 326118) [DRSC14260] gave: inactive.
Depletion of RNaseZ (GeneID 36086) [DRSC06845] came out at: inactive.
For ND-MWFE (GeneID 5740593) [DRSC06364], the values are inactive.
With knock-down of CG30088 (GeneID 246447) [DRSC21764], the record shows inactive.
Vajk3 (GeneID 34812) [DRSC01883] scored inactive.
Against CG34423 + Mthfs [DRSC04088] the deposit lists inactive.
For CG31955 (GeneID 319045) [DRSC00285], the entry reads inactive.
Against CG42342 (GeneID 7354466) [DRSC13165], the values are inactive.
Against CG42342 (GeneID 7354466) [DRSC14378] the deposit lists inactive.
After knock-down of CG42342 (GeneID 7354466) [DRSC15010], the record shows inactive.
For CG42342 (GeneID 7354466) [DRSC15011], the entry reads inactive.
For CG42342 (GeneID 7354466) [DRSC15012], the entry reads inactive.
CG42342 (GeneID 7354466) [DRSC21791] gave inactive.
Silencing of CG42342 (GeneID 7354466) [DRSC22861] resulted in: inactive.
For CG13443 (GeneID 37351) [DRSC06403] the deposit lists inactive.
Depletion of Pgls (GeneID 32013) [DRSC19769] resulted in: inactive.
Against CG13160 (GeneID 36343) [DRSC06284] the deposit lists inactive.
Phae1 (GeneID 34637) [DRSC02554] scored inactive.
Wnt10 (GeneID 34011) [DRSC00990] gave inactive.
Silencing of Wnt10 (GeneID 34011) [DRSC02797] resulted in: inactive.
For CG6951 (GeneID 40222) [DRSC10755], the values are inactive.
After knock-down of CG14537 (GeneID 34072) [DRSC02395], the screen gave inactive.
Knock-down of Hsl (GeneID 37289) [DRSC06028] resulted in: inactive.
Nct (GeneID 42964) [DRSC16172] showed inactive.
Knock-down of trh (GeneID 38065) [DRSC08355] gave: inactive.
Depletion of trh (GeneID 38065) [DRSC08739] gave: inactive.
Against sw + Sdic4 + Sdic3 + 2 more [DRSC20696] the deposit lists inactive.
Depletion of GCS1 (GeneID 32073) [DRSC19744] came out at: inactive.
Silencing of Mst84Dd (GeneID 40886) [DRSC12600] gave: inactive.
Depletion of CG3457 (GeneID 31196) [DRSC18509] gave: inactive.
Against CG33969 (GeneID 40252) [DRSC11777] the deposit lists inactive.
After knock-down of CG9592 (GeneID 39585) [DRSC11078], the record shows inactive.
Silencing of CG8160 (GeneID 36701) [DRSC07086] gave: inactive.
Silencing of CG8160 (GeneID 36701) [DRSC21434] gave: inactive.
After knock-down of Tcs6 + PIG-P [DRSC13742], the record shows inactive.
Silencing of Tcs6 + PIG-P [DRSC14893] resulted in: inactive.
Depletion of HLH54F (GeneID 37027) [DRSC07438] resulted in: inactive.
After knock-down of Vha36-3 (GeneID 31235) [DRSC18615] the results were inactive.
For CG13069 (GeneID 50271) [DRSC09952], the values are inactive.
CG7484 (GeneID 39969) [DRSC10853] showed inactive.
For aqz (GeneID 41058) [DRSC16570], the values are inactive.
Knock-down of Eip93F (GeneID 44936) [DRSC13527] resulted in: inactive.
For Eip93F (GeneID 44936) [DRSC16661], the values are inactive.
Silencing of Eip93F (GeneID 44936) [DRSC21754] came out at: inactive.
CAH14 (GeneID 37359) [DRSC04234] gave inactive.
Knock-down of CAH14 (GeneID 37359) [DRSC22160] gave: inactive.
CG5639 (GeneID 43314) [DRSC15851] showed inactive.
For Or13a (GeneID 32562) [DRSC20265] the deposit lists inactive.
For MRG15 (GeneID 41850) [DRSC16731] the deposit lists inactive.
Silencing of ppk6 (GeneID 37286) [DRSC06062] came out at: inactive.
With knock-down of en (GeneID 36240) [DRSC07609], the record shows inactive.
With knock-down of CG31437 (GeneID 318735) [DRSC13711] the results were inactive.
With knock-down of MAGE (GeneID 40860) [DRSC12504], the record shows inactive.
Silencing of fln (GeneID 40185) [DRSC11346] resulted in: inactive.
CtsL1 (GeneID 36546) [DRSC05462] scored inactive.
Depletion of CtsL1 (GeneID 36546) [DRSC07363] came out at: inactive.

6 entries from above in another layout.
Vha36-3 (GeneID 31235) [DRSC18615]
- activity call: inactive

CG13069 (GeneID 50271) [DRSC09952]
- activity call: inactive

CG7484 (GeneID 39969) [DRSC10853]
- activity call: inactive

aqz (GeneID 41058) [DRSC16570]
- activity call: inactive

Eip93F (GeneID 44936) [DRSC13527]
- activity call: inactive

Eip93F (GeneID 44936) [DRSC16661]
- activity call: inactive
